In all, about 330,000 compounds went through this assay and about 100 (0.03%) were called active. The inconclusive results got no clear call from the source; some entries with a clear call stand among them for comparison. Calls follow the shape of the dose curve; as a rule, active = well fitted inhibition curve with a large enough effect; inconclusive = small, poorly fitted or top-dose-only effect; inactive = flat fitted curve, though single readings scatter. Potencies beside an inconclusive call are fits to weak or partial responses and may not hold up.
System: Chaperonin Mm-Cpn (Methanococcus maripaludis)
Test: Inhibitors of TCP-1 ring complex (TRiC) of Methanococcus maripaludis (MmCpn): qHTS; also: nearly all actives have a fitted effect of over 80% in size;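 as to Potency: enzyme at 25 nM with ATP substrate at 10 µM during the reaction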
Conditions: purified Mm-Cpn ATPase, ADP Transcreener TR-FRET; series mostly up to 76.9 µM
Summary of the method: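 Inhibition of chaperonin ATP hydrolysis is measured as reduced ADP production, detected by competitive TR-FRET in which signal falls with ADP. Final enzyme 25 nM and ATP 10 uM, reacted 30 min at 37°C.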
Potency is read from the fitted curve at half-maximal effect.

Potency, active:
COc1ccccc1-c1sc2cc3c(cc2c1-c1ccc2c(c1)OCO2)OCO3 17.8 µM

Potency, inconclusive:
COc1ccc(N2CCN(C(=O)C3Cc4ccccc4CN3C(=O)c3ccco3)CC2)cc1 (stereo not drawn) 89.1 µM [inhibitor, single point]
Cc1ccc(C(=O)O)cc1Nc1ncnc2sc3c(c12)CCC3 25.1 µM [inhibitor, single point]
CCn1c(C(=O)O)c(CC(=O)Nc2ccc(Br)cc2C)c2ccccc21 22.4 µM [inhibitor, single point]
C=CCn1c(CNc2ccc(C)cc2)nnc1SCC(=O)N/N=C/c1ccc(O)cc1 17.8 µM [inhibitor, single point]
Cc1nc2ccccc2c(=O)n1NC(=O)c1ccc(Cl)c(Cl)c1 15.8 µM [inhibitor, single point]
CN(CC(=O)Nc1ccc(F)cc1)C(=O)CCc1ccccc1 100 µM [inhibitor, partial curve, poor fit]
CCOc1ccc(NC(=O)N2CCC(c3ccc(C)cc3)C2)cc1 (stereo not drawn) 17.8 µM [inhibitor, single point]
CCOc1ccccc1N(C)C(=O)c1cc2c(=O)n(CC)c3ccccc3c2s1 22.4 µM [inhibitor, single point]
COc1ccc(OC)c(NC(=O)CN(c2ccc(OC)c(Cl)c2)S(C)(=O)=O)c1 22.4 µM [inhibitor, partial curve, poor fit]
COc1ccc2c(-c3ccc(S(N)(=O)=O)cc3)c(-c3ccc(S(C)(=O)=O)cc3)sc2c1 200 µM [inhibitor, partial curve]
O=S(=O)(/N=C(/NC(=S)Nc1ccccc1)c1ccccc1)c1ccc(Cl)cc1 100 µM [inhibitor, single point]
O=C(Nc1ccc2c(c1)CCC2)c1cccc(S(=O)(=O)Nc2ccccc2Cl)c1 100 µM [inhibitor, partial curve, poor fit]
O=C(CNc1ccc2ccccc2c1)N/N=C/c1ccc(OC(=O)/C=C/c2ccco2)cc1 89.1 µM [inhibitor, single point]
COc1cc(CN2CCN(c3ccccc3C)CC2)cc([N+](=O)[O-])c1O 56.2 µM [inhibitor, single point]
Cc1ccc(NC(=O)c2ccc(Cn3cc([N+](=O)[O-])cn3)cc2)c(C)c1 25.1 µM [inhibitor, single point]
Cc1ccc(OCC(=O)O/N=C(\N)c2cccc([N+](=O)[O-])c2)cc1C 79.4 µM [inhibitor, single point]
COc1cccc(-n2ccnc2SCC(=O)NCc2ccccc2)c1 89.1 µM [inhibitor, single point]
O=C(CCCC(=O)n1cnc2ccccc21)n1cnc2ccccc21 44.7 µM [inhibitor, single point]
CCCCCOc1ccc(C(=O)NCC(=O)NCC(=O)OCC)cc1 22.4 µM [inhibitor, single point]
Cc1nc(C(=O)Nc2cccc(Cl)c2Cl)nn1-c1cc(OC(C)C)c(Cl)cc1Cl 70.8 µM [inhibitor, partial curve, poor fit]
O=C(CSc1nnc(COc2ccc(Cl)cc2)o1)N1CCCCC1 100 µM [inhibitor, single point]
CCn1c(COc2ccc(C)cc2)nnc1SCc1ccc(C#N)cc1 31.6 µM [inhibitor, single point]
COc1cccc(C2c3[nH]c4ccccc4c3C[C@H]3C(=O)N(CCCO)CC(=O)N23)c1OC (stereo partly drawn) 17.8 µM [inhibitor, single point]
Cc1cccc2cc(C#N)c(NCCCNS(=O)(=O)c3ccc(Cl)cc3)nc12 224 µM [inhibitor, partial curve, poor fit]
S=c1[nH]nc(C2CCCCC2)o1 100 µM [inhibitor, single point]
O=C(Nc1cc(S(=O)(=O)N2CCOCC2)ccc1N1CCCCC1)c1ccccc1Br 63.1 µM [inhibitor, partial curve, poor fit]
Cc1ccc(-c2nnc(NCc3nc4ccccc4[nH]3)c3ccccc23)cc1S(=O)(=O)N1CCOCC1 100 µM [inhibitor, single point]
Cc1cc(OCC(=O)Nc2cc(-c3nn4c(C)nnc4s3)ccc2C)ccc1Cl 100 µM [inhibitor, single point]
CCOc1cc(/C=N/NC(=O)Cc2ccc(C(F)(F)F)cc2[N+](=O)[O-])ccc1O 79.4 µM [inhibitor, single point]
CN1/C(=C\C(=S)NC(=O)c2ccccc2Cl)C(C)(C)c2ccccc21 100 µM [inhibitor, single point]
COc1ccc(-c2ccc(SCC(=O)c3ccc(F)cc3)nn2)cc1OC 56.2 µM [inhibitor, partial curve, poor fit]
CC(NCCCOc1cccc2ccccc12)c1ccccc1 (stereo not drawn) 22.4 µM [inhibitor, single point]
COc1ccccc1Nc1nc(-c2sc(NC(=O)C(C)(C)C)nc2C)cs1 112 µM [inhibitor, single point]
O=C(CCN1CCOCC1)c1ccc2c(c1)OCCO2 56.2 µM [inhibitor, single point]
COc1ccc(-c2c(C)sc(NC(=O)c3ccnn3C)c2C#N)cc1 22.4 µM [inhibitor, single point]
C[C@@H]1CN([C@@H](C)CO)C(=O)c2cccc(NC(=O)C3CCOCC3)c2O[C@H]1CN(C)S(=O)(=O)c1ccc(Cl)cc1 89.1 µM [inhibitor, single point]
Nc1cc(C(=O)O)c(N)c2c1C(=O)c1ccccc1C2=O 35.5 µM [inhibitor, partial curve, poor fit]
CC(Sc1nnc(C2CC2)n1-c1ccccc1)C(=O)N1CCCC1 (stereo not drawn) 11.2 µM [inhibitor, single point]
Cc1cccc(CSc2nc3c(c(-c4cccs4)c2C#N)CN(C)CC3)c1 112 µM [inhibitor, partial curve, poor fit]
CCOC(=O)c1cnc2c(ccc3ccccc32)c1Cl 79.4 µM [inhibitor, single point]
Cc1ccnc(NS(=O)(=O)c2cc(C(F)(F)F)ccc2Cl)c1 79.4 µM [inhibitor, single point]
COc1cccc(OCCn2cc(C(=O)c3ccco3)c3ccccc32)c1 100 µM [inhibitor, single point]
CN1CCN(c2ccc(-c3cccc(NC(=O)COc4ccc(Cl)cc4Cl)c3)nn2)CC1 89.1 µM [inhibitor, single point]
CCOC(=O)C1(Cc2ccccc2)CCN(Cc2cn[nH]c2-c2ccccc2)CC1 100 µM [inhibitor, single point]
Cc1cccc(NS(=O)(=O)c2nnc(NC(=O)C3CCCCC3)s2)c1 39.8 µM [inhibitor, single point]
COCCN(Cc1cc2ccc(C)cc2[nH]c1=O)S(=O)(=O)c1ccccc1 70.8 µM [inhibitor, single point]
O=C(COc1ccc2c(-c3ccccc3)cc(=O)oc2c1)NCCCn1ccnc1 15.8 µM [inhibitor, single point]

A portion from further up:
Potency, inconclusive:
CCOc1ccccc1N(C)C(=O)c1cc2c(=O)n(CC)c3ccccc3c2s1 22.4 µM [inhibitor, single point]
COc1ccc(OC)c(NC(=O)CN(c2ccc(OC)c(Cl)c2)S(C)(=O)=O)c1 22.4 µM [inhibitor, partial curve, poor fit]
COc1ccc2c(-c3ccc(S(N)(=O)=O)cc3)c(-c3ccc(S(C)(=O)=O)cc3)sc2c1 200 µM [inhibitor, partial curve]
O=S(=O)(/N=C(/NC(=S)Nc1ccccc1)c1ccccc1)c1ccc(Cl)cc1 100 µM [inhibitor, single point]

Following part.

Potency, inactive:
COc1ccc2[nH]c(C(=O)O)c(NS(=O)(=O)c3ccc(C)cc3C)c2c1
O=C(NC(NC(=S)Nc1ccc(Cl)cc1)C(Cl)(Cl)Cl)c1ccco1 (stereo not drawn)
COc1ccc(O)c(/C=N/Nc2nc(Nc3ccccc3)nc(-n3nc(C)cc3C)n2)c1
Nc1nc(=S)c2ncn(C3CCCC3)c2[nH]1
O=C(N/N=C/c1ccccn1)c1ccc([N+](=O)[O-])cc1
O=C(O)c1ccc(N2C(=O)c3cccnc3C2=O)cc1
CCC(C)C(=O)Nc1nnc(CCc2ccccc2)s1 (stereo not drawn)
O=C(CN1CCOCC1)Nc1nc2ccc([N+](=O)[O-])cc2s1
Cn1c(-c2cccc([N+](=O)[O-])c2)cnc1NCc1cccc([N+](=O)[O-])c1
Oc1ccc2ccccc2c1CN1CCN(C/C=C/c2ccccc2)CC1
O=C(/C=C/c1ccccc1Cl)NC1CCS(=O)(=O)C1 (stereo not drawn)
O=c1[nH]ncc(N2CCN(C(c3ccccc3)c3ccccc3)CC2)c1Cl
Cc1ccc(N(CC(=O)NC2CCCCCC2)S(=O)(=O)c2c(C)nn(C)c2C)cc1
O=C1c2ccccc2C(=O)c2c(Nc3ccc(CCO)cc3)ccc(O)c21
COc1ccc(C(=O)[C@H]2[C@H]3C(=O)N(c4ccccc4)C(=O)[C@H]3C3C=CC=NN32)cc1 (stereo partly drawn)
COc1cc(C(=O)O/N=C2\C=CC(=O)C(C)=C2)cc(OC)c1OC
Cc1ccccc1NC(=O)CC1SC(=O)N(c2ccccc2)C1=O (stereo not drawn)
CC(C)c1cc(C(=O)Nc2cccc(Cl)c2)no1
CCOC(=O)c1snc2c(=O)[nH]cnc12
Cc1c(N)c(C(C)(C)C)cc(C(C)(C)C)c1[N+](=O)[O-]

Random excerpt: two entries already listed
Potency, inactive:
Oc1ccc2ccccc2c1CN1CCN(C/C=C/c2ccccc2)CC1
COc1ccc(O)c(/C=N/Nc2nc(Nc3ccccc3)nc(-n3nc(C)cc3C)n2)c1
